Data: publication PMC6237754, “A monovalent ion in the DNA binding interface of the eukaryotic junction-resolving enzyme GEN1”
Weaker means in comparison with the reference protein, sequence or condition of that experiment. Where a protein sequence is shown, tags need not be part of it. Construct, isoform or probe ends are uncertain for at least one entry.

Target: T1, CtGEN1 (Chaetomium thermophilum) (UniProt G0RYN2)
T1 sequence (looked up): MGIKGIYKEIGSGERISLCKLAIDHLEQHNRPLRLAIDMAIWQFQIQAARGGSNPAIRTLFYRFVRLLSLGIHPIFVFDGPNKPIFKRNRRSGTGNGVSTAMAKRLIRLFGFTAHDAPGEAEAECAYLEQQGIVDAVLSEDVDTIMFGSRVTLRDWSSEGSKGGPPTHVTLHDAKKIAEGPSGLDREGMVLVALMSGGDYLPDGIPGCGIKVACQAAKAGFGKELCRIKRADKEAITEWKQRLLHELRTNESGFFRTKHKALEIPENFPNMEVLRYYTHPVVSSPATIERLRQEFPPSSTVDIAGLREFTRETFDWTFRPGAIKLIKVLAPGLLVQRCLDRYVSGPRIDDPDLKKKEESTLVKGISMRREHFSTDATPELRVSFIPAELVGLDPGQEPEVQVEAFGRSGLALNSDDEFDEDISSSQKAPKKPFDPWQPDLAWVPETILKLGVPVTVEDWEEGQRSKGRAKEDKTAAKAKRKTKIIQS
Assay: EMSA
Details: EMSA: equal volumes of DNA in 10 mM Tris pH 7.5, 0.1% BSA, 100 mM KCl or NaCl and CtGEN1 in 10 mM Tris pH 7.5, 100 mM NDSB-195, 0.1% BSA, 1 mM EDTA, 20 min, 20 C, recombinant protein, residues 1-487, protein details: C-terminal His6, label: 5'-32P, folded or branched DNA

[1] = NaCl, lower affinity than in K+

| Sequence | binding result (KCl, weaker than 4H, tighter than nicked 3H) | binding result [1] | binding result (KCl, weaker than 4H and 3H) |
| --- | --- | --- | --- |
| CCTCGAGGGATCCGTCCTAGCAAGGACTCAACTGCAGTCTAGAACACATG / CATCTGTGAATTCAACCACCGCTCAACTCAACTGCAGTCTAGAACACATG / CATGTGTTCTAGACTGCAGTTGAGTCCTTGCTAGGACGGATCCCTCGAGG [three-way junction (3H)] | binds more weakly | binds more weakly |  |
| CCTCGAGGGATCCGTCCTAGCAAGGGGCTGCTACCGGAAGCTTACAGATG / CATGTGTTCTAGACTGCAGTTGAGTCCTTGCTAGGACGGATCCCTCGAGG / CATCTGTAAGCTTCCGGTAGCAGCC / ACTCAACTGCAGTCTAGAACACATG [nicked three-way junction] |  | binds more weakly | binds more weakly |
